# This is one part of the list.
# Protein sequences, listed by entry. Tags and fused reporters are not part of them. Lines headed by an entry give the natural chain unless they say otherwise; changes in a name come on top.
# UniProt P42785: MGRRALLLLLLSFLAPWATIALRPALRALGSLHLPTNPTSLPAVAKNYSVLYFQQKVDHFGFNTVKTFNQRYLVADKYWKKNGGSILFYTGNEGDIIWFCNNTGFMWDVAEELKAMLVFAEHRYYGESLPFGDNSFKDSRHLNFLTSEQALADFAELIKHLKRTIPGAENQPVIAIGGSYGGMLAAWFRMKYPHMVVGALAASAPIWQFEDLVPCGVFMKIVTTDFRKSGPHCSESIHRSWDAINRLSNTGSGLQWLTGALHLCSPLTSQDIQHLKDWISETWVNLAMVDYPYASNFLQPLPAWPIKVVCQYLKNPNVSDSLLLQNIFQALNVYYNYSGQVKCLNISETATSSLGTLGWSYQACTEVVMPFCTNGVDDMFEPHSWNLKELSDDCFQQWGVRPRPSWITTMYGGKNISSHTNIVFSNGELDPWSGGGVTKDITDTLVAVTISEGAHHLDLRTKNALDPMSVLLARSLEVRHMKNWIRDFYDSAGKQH
# UniProt P31323, whole entry, looked up: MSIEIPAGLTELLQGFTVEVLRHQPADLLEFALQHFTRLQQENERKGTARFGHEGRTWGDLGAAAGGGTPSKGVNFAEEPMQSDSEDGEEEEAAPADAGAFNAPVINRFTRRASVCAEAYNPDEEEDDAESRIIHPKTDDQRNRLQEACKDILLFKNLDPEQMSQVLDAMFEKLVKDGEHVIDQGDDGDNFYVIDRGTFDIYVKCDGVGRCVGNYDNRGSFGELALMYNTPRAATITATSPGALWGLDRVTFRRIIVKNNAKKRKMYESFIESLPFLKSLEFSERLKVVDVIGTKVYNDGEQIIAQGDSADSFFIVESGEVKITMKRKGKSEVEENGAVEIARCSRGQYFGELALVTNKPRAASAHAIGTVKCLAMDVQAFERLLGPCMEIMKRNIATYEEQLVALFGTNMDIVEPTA
# UniProt Q5MIZ7: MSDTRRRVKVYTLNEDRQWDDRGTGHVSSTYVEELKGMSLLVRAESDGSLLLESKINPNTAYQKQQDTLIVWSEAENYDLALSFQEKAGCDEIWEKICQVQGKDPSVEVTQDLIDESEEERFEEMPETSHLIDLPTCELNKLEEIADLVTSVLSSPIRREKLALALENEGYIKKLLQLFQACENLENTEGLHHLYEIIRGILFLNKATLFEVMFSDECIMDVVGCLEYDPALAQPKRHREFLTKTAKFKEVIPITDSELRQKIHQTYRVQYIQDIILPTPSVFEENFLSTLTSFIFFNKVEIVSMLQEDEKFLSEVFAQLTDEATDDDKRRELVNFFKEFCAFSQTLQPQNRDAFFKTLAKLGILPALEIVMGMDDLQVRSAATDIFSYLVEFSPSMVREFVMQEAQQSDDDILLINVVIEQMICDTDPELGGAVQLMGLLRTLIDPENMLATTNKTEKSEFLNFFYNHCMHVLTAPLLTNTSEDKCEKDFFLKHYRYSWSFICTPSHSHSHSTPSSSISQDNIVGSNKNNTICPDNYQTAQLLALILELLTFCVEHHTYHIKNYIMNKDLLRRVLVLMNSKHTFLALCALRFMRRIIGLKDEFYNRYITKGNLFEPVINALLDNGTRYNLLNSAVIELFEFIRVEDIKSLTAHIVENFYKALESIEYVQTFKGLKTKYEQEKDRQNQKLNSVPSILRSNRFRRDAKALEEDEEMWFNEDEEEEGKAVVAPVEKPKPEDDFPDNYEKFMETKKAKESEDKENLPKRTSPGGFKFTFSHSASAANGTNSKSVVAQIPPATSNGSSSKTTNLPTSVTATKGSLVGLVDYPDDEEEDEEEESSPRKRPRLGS
# UniProt Q15173: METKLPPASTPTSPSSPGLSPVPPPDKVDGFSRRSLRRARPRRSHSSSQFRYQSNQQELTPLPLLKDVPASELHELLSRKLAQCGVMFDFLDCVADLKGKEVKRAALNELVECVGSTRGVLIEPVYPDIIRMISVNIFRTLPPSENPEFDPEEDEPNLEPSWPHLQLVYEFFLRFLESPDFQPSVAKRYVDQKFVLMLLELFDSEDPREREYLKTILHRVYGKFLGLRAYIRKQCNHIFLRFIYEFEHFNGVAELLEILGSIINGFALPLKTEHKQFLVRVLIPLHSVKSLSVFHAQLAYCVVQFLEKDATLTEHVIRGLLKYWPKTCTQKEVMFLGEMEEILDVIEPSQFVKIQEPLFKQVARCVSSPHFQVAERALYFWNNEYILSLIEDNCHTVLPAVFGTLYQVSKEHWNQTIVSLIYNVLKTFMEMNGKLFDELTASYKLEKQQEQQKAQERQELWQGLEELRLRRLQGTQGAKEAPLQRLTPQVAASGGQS
# UniProt P14222: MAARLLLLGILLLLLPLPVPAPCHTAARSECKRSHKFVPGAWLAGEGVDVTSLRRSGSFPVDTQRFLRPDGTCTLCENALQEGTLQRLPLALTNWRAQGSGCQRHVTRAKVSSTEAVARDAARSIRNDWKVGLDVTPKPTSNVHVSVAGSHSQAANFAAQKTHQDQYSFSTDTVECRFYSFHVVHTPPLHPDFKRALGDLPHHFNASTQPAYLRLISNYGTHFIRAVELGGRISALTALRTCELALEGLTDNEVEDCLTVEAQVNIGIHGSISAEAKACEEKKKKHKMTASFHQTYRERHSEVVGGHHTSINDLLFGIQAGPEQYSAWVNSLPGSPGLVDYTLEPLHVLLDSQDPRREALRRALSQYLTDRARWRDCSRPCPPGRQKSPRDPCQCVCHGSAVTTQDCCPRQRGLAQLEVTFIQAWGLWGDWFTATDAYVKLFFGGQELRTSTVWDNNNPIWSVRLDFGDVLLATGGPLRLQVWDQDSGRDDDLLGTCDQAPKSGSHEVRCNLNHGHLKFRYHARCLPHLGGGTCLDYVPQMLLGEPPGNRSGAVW
# UniProt Q02156: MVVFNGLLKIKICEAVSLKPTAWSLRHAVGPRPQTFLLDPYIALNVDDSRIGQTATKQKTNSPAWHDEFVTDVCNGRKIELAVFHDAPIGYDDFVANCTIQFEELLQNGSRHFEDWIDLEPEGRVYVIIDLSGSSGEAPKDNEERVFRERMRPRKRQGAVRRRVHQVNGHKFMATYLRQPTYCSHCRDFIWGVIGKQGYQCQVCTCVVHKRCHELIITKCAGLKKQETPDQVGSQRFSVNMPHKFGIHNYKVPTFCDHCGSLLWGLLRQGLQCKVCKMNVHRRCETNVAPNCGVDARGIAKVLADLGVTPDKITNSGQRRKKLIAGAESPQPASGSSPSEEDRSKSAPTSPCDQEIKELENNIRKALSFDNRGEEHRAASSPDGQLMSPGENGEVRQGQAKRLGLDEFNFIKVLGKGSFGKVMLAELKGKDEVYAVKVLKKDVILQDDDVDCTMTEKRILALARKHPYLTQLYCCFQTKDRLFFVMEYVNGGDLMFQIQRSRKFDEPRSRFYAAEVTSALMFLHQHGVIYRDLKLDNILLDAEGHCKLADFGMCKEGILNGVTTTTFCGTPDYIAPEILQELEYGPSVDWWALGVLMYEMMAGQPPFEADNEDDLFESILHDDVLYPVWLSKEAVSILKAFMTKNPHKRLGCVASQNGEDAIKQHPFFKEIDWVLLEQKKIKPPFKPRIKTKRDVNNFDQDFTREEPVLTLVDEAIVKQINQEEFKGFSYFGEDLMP
# UniProt O60678: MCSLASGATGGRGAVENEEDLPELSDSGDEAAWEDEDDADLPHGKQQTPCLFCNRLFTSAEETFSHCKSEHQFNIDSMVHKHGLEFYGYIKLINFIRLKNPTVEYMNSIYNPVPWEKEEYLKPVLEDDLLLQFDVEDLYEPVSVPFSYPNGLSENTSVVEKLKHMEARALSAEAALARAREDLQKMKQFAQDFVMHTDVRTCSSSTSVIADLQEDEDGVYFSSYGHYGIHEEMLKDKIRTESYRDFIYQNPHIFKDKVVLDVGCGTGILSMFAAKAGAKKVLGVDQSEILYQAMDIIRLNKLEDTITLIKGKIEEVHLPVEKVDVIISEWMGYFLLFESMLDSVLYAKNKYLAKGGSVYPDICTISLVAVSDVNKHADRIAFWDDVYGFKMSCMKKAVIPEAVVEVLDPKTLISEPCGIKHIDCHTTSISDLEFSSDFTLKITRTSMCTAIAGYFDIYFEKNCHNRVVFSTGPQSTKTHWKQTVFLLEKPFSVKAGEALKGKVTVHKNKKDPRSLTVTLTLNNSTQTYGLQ
# UniProt Q9Y3B1: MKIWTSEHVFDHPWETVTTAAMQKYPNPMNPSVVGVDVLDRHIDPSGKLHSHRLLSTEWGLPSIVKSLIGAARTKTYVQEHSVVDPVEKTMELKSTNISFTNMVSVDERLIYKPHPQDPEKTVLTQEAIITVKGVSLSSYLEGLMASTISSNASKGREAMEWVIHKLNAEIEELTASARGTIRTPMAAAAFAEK
# UniProt Q8TAP8: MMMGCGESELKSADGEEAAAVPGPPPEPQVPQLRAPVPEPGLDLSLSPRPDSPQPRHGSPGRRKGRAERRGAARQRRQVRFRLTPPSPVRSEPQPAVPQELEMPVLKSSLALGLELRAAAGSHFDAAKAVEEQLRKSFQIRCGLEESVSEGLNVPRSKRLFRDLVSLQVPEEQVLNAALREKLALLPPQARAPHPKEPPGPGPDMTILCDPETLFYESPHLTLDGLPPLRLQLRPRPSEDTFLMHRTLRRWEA
# UniProt Q9NR22, whole entry, looked up: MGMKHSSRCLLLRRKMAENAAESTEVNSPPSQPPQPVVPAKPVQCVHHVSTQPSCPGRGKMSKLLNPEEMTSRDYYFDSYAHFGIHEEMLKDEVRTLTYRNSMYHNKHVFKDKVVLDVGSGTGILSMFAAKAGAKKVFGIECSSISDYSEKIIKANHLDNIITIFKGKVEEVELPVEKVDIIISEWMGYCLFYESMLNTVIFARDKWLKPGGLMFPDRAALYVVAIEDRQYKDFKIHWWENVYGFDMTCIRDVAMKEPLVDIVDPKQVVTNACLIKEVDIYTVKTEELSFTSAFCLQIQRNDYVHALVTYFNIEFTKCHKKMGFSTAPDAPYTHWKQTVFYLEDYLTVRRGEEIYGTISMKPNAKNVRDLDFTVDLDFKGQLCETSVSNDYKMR
# UniProt Q04759: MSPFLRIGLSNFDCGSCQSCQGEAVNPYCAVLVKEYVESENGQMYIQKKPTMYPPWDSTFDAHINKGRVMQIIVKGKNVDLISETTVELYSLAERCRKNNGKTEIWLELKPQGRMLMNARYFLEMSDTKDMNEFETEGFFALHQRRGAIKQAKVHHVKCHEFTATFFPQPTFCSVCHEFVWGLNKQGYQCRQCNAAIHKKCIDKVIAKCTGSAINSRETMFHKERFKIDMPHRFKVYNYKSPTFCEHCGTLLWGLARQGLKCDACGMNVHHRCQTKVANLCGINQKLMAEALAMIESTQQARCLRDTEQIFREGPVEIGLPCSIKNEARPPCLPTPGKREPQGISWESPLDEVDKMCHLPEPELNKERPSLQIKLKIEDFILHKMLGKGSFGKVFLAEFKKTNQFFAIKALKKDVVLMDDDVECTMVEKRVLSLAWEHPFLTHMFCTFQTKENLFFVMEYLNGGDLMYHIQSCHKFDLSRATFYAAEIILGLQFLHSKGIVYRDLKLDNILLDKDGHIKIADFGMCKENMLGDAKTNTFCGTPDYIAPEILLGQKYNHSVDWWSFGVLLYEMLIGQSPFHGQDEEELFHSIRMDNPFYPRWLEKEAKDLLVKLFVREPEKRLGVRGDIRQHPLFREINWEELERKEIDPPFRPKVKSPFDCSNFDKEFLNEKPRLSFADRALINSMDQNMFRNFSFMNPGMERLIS
# Columns and labels:
# Test in all cases: log2 fold change, soluble protein after heating vs DMSO (PISA); higher = thermal stabilisation; K562 cells, 10 uM, 30 min; active = over 0.2 and 3.5 SD of the protein, either way, in both replicates (recomputed)
# erlotinib = compound: C#Cc1cccc(Nc2ncnc3cc(OCCOC)c(OCCOC)cc23)c1 [erlotinib]
# Method in brief: (§1)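 K562 cells at 2×10^6 cells/mL were exposed to 10 μM compound for 30 min, then aliquots were heated for 3 min across 48°C-58°C, pooled, and extracted in PBS containing 0.5% NP-40 at 4°C. The supernatant after 21,000xg for 90 min was taken as soluble protein and measured by TMTpro 16plex LC-MS/MS with channel sums equalised. Thermal stability is reported relative to control samples, with values from duplicates. Fold changes are given on a log2 scale.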
# [1] = compound: C/C(=N\NC(=O)C1=CC(=CC=C1)S(=O)(=O)N2CCOCC2)/C3=C(C=CC(=C3)Cl)O
# Method in brief: as §1
# [2] = compound: C1=CC(=C(C=C1Cl)C2=NC3=NC=CN=C3C(=N2)NC4=CC=NC=C4)F
# Method in brief: as §1
# [3] = compound: C1=CC(=CC=C1C2=NC3=C(N2)C=C(C=C3)C(=O)N)OC4=CC=C(C=C4)Cl
# Method in brief: as §1
# [4] = compound: C1=CC2=C(C=CC(=C2)/C=C\3/C(=O)NC(=NCC4=CC=CS4)S3)N=C1
# Method in brief: as §1
# [5] = compound: C1=CC2=NC=CN=C2C=C1/C=C/3\C(=O)NC(=O)S3
# Method in brief: as §1
# [6] = compound: C1=CC=C(C=C1)C2=NC(=C(N2)C3=CC=NC=C3)C4=CC(=C(C=C4)Cl)O
# Method in brief: as §1
# [7] = compound: C1=CC=C2C(=C1)C3=NNC4=CC=CC(=C43)C2=O
# Method in brief: as §1
# [8] = compound: C1CCN(C1)C(=O)NC2=CC=CC(=C2)NC3=NC=C(C(=N3)NCCC4=CN=CN4)Br
# Method in brief: as §1
# [9] = compound: C1CN(CCC1(CC2=CC=C(C=C2)Cl)N)C3=NC=NC4=C3C=CN4
# Method in brief: as §1
# IRAK-1-4 Inhibitor I = compound: C1COCCN1CCN2C3=CC=CC=C3N=C2NC(=O)C4=CC(=CC=C4)[N+](=O)[O-] [IRAK-1-4 Inhibitor I]
# Method in brief: as §1
# ibrutinib = compound: C=CC(=O)N1CCC[C@@H](n2nc(-c3ccc(Oc4ccccc4)cc3)c3c(N)ncnc32)C1 [ibrutinib]
# Method in brief: as §1
# [10] = compound: CC(=O)c1cnc2ccc(-c3cc(Cl)c(O)c(Cl)c3)nc2c1N[C@H]1CC[C@H](CN(C)C)CC1
# Method in brief: as §1
# ralimetinib = compound: CC(C)(C)Cn1c(N)nc2ccc(-c3[nH]c(C(C)(C)C)nc3-c3ccc(F)cc3)nc21 [ralimetinib]
# Method in brief: as §1
# [11] = compound: CC(C)(O)CC(=O)NCCn1ccc2ncnc(Nc3ccc(Oc4cccc(C(F)(F)F)c4)c(Cl)c3)c21
# Method in brief: as §1
# [12] = compound: CC(C)C1=C2N=C(C=C(N2N=C1)NCC3=CC=CC=C3)NCCCCCCN
# Method in brief: as §1
# [13] = compound: CC(C)C[C@@H](C=O)NC(=O)[C@H](CC(C)C)NC(=O)[C@H](CC(C)C)NC(=O)OCc1ccccc1
# Method in brief: as §1
# pinometostat = compound: CC(C)N(C[C@H]1O[C@@H](n2cnc3c(N)ncnc32)[C@H](O)[C@@H]1O)[C@H]1C[C@@H](CCc2nc3cc(C(C)(C)C)ccc3[nH]2)C1 [pinometostat]
# Method in brief: as §1
# [14] = compound: CC1=C(C2=C(C=C1)C(=O)C3=CC=CC=C3N2CCCN)C
# Method in brief: as §1
Target,log2 fold change (erlotinib),log2 fold change [1],log2 fold change [2],log2 fold change [3],log2 fold change [4],log2 fold change [5],log2 fold change [6],log2 fold change [7],log2 fold change [8],log2 fold change [9],log2 fold change (IRAK-1-4 Inhibitor I),log2 fold change (ibrutinib),log2 fold change [10],log2 fold change (ralimetinib),log2 fold change [11],log2 fold change [12],log2 fold change [13],log2 fold change (pinometostat),log2 fold change [14]
PRCP (UniProt P42785),inactive: -0.028,inactive: 0.013,inactive: 0.049,inactive: -0.025,inactive: -0.052,inactive: 0.014,inactive: -0.019,inactive: -0.001,inactive: 0.038,inactive: 0.052,inactive: 0.04,inactive: 0.012,inactive: 0.014,inactive: -0.01,inactive: -0.072,inactive: -0.077,inactive: -0.025,inactive: -0.006,inactive: -0.101
PRKAR2B (UniProt P31323),inactive: -0.017,inactive: 0.066,inactive: -0.082,inactive: 0.16,inactive: -0.004,inactive: 0.012,inactive: -0.058,inactive: -0.083,active: -0.449,active: -0.636,inactive: -0.038,inactive: -0.011,active: -0.833,inactive: -0.039,inactive: -0.007,inactive: -0.068,inactive: 0.044,inactive: 0.108,inactive: 0.022
PRKACA (UniProt P17612),inactive: 0.013,inactive: 0.033,inactive: -0.054,inactive: -0.016,inactive: -0.034,inactive: 0.042,inactive: 0.087,inactive: -0.025,inactive: -0.142,inactive: 0.047,inactive: 0.023,inactive: -0.011,inactive: -0.038,inactive: -0.01,inactive: 0.01,inactive: 0.008,inactive: 0.005,inactive: -0.06,inactive: -0.034
PRKAR1B (UniProt P31321),inactive: -0.027,inactive: -0.056,inactive: -0.036,inactive: 0.013,inactive: 0.205,inactive: 0.282,inactive: -0.006,inactive: 0.102,inactive: 0.086,inactive: -0.077,inactive: 0.005,inactive: 0.004,inactive: -0.112,inactive: 0.143,inactive: -0.013,inactive: -0.11,inactive: 0.007,inactive: 0.105,inactive: -0.104
PPP4R3B (UniProt Q5MIZ7),inactive: 0.022,inactive: 0.023,inactive: 0.013,inactive: -0.023,inactive: 0.083,inactive: 0.028,inactive: -0.023,inactive: -0.019,inactive: -0.003,inactive: -0.027,inactive: 0.027,inactive: -0.024,inactive: -0.018,inactive: -0.014,inactive: 0.095,inactive: -0.069,inactive: -0.023,inactive: -0.021,inactive: -0.069
PPP2R5B (UniProt Q15173),inactive: -0.044,inactive: 0.039,,inactive: -0.05,inactive: -0.003,inactive: 0.072,,inactive: 0.124,,,,inactive: -0.083,inactive: 0.165,,,inactive: 0.092,,,
PRF1 (UniProt P14222),inactive: 0.111,,inactive: -0.152,inactive: 0.042,,inactive: -0.137,,,,,,inactive: 0.013,,,inactive: -0.109,inactive: 0.061,,,
PRKCE (UniProt Q02156),inactive: -0.076,inactive: 0.107,inactive: 0.111,inactive: 0.057,inactive: 0.06,inactive: 0.057,,inactive: 0.004,inactive: -0.019,inactive: -0.095,inactive: -0.02,inactive: -0.013,active: -0.468,,inactive: -0.026,inactive: -0.153,,inactive: -0.051,inactive: -0.009
PRMT3 (UniProt O60678),inactive: -0.056,inactive: 0.147,inactive: 0.03,inactive: 0.027,inactive: 0.066,inactive: 0.011,inactive: 0.028,inactive: -0.003,inactive: -0.01,inactive: -0.089,inactive: 0,inactive: -0.102,inactive: -0.023,inactive: -0.028,inactive: -0.167,inactive: -0.189,inactive: 0.028,inactive: 0.003,inactive: 0.079
PRKCA (UniProt P17252),inactive: 0.117,inactive: 0.041,inactive: 0.04,inactive: -0.009,inactive: 0.127,inactive: 0.016,inactive: -0.019,inactive: -0.006,inactive: 0.008,inactive: -0.074,inactive: 0.012,inactive: -0.02,active: -0.595,inactive: -0.039,inactive: -0.02,inactive: -0.035,inactive: 0.104,inactive: -0.015,inactive: 0.064
PRPF40A (UniProt O75400),inactive: 0.082,inactive: 0.083,inactive: -0.087,inactive: 0.012,inactive: 0.032,inactive: 0.007,inactive: -0.037,inactive: -0.135,inactive: -0.129,inactive: -0.124,inactive: -0.093,inactive: -0.085,inactive: -0.149,inactive: 0.095,inactive: -0.022,active: -0.411,inactive: 0.043,inactive: -0.041,inactive: 0.13
PRELID3B (UniProt Q9Y3B1),inactive: -0.063,inactive: 0.208,inactive: -0.047,inactive: 0.271,inactive: 0.082,,,inactive: 0.006,inactive: -0.107,inactive: -0.041,,,inactive: -0.152,,inactive: 0.177,inactive: -0.573,,,inactive: -0.035
PPT2 isoform 3 (UniProt Q9UMR5),inactive: 0,inactive: 0.056,inactive: 0.033,inactive: -0.001,inactive: -0.026,inactive: -0.02,inactive: 0.038,inactive: 0.039,inactive: -0.012,inactive: 0.031,inactive: 0.078,inactive: 0.036,inactive: -0.04,inactive: 0.052,inactive: 0.006,inactive: -0.17,inactive: -0.014,inactive: -0.041,inactive: 0.037
PPP1R12C (UniProt Q9BZL4),inactive: -0.13,,inactive: -0.011,inactive: -0.059,,inactive: 0.064,inactive: 0.037,,inactive: -0.05,inactive: -0.238,,inactive: -0.024,,inactive: -0.028,inactive: 0.045,inactive: -0.126,inactive: -0.041,,inactive: -0.157
PPP1R35 (UniProt Q8TAP8),inactive: 0.137,inactive: -0.064,inactive: -0.038,inactive: 0.029,inactive: 0.01,inactive: 0.034,inactive: 0.021,inactive: -0.031,inactive: 0.009,inactive: 0.001,inactive: -0.055,inactive: -0.057,inactive: -0.069,inactive: -0.007,inactive: -0.026,inactive: -0.049,inactive: 0.036,inactive: -0.021,inactive: -0.049
PRMT8 (UniProt Q9NR22),inactive: -0.008,inactive: 0.03,inactive: 0.159,inactive: -0.067,inactive: 0.099,inactive: -0.005,inactive: 0.122,inactive: 0.042,inactive: 0.012,inactive: 0.028,inactive: 0.045,inactive: -0.004,inactive: -0.012,inactive: 0.098,inactive: -0.014,inactive: 0.001,inactive: -0.073,inactive: 0.026,inactive: 0.101
PRKCQ (UniProt Q04759),inactive: 0.036,inactive: 0.047,inactive: 0.024,inactive: 0.03,inactive: 0.093,inactive: 0.012,inactive: 0.012,inactive: -0.008,inactive: -0.007,inactive: -0.061,inactive: 0.004,inactive: -0.026,active: -2.02,inactive: -0.02,inactive: -0.037,inactive: -0.103,inactive: -0.011,inactive: 0.028,inactive: 0.018

# Pulled one by one from the entries so far, two records:
Target,log2 fold change (erlotinib),log2 fold change [1],log2 fold change [2],log2 fold change [3],log2 fold change [4],log2 fold change [5],log2 fold change [6],log2 fold change [7],log2 fold change [8],log2 fold change [9],log2 fold change (IRAK-1-4 Inhibitor I),log2 fold change (ibrutinib),log2 fold change [10],log2 fold change (ralimetinib),log2 fold change [11],log2 fold change [12],log2 fold change [13],log2 fold change (pinometostat),log2 fold change [14]
PPT2 isoform 3 (UniProt Q9UMR5),inactive: 0,inactive: 0.056,inactive: 0.033,inactive: -0.001,inactive: -0.026,inactive: -0.02,inactive: 0.038,inactive: 0.039,inactive: -0.012,inactive: 0.031,inactive: 0.078,inactive: 0.036,inactive: -0.04,inactive: 0.052,inactive: 0.006,inactive: -0.17,inactive: -0.014,inactive: -0.041,inactive: 0.037
PRKACA (UniProt P17612),inactive: 0.013,inactive: 0.033,inactive: -0.054,inactive: -0.016,inactive: -0.034,inactive: 0.042,inactive: 0.087,inactive: -0.025,inactive: -0.142,inactive: 0.047,inactive: 0.023,inactive: -0.011,inactive: -0.038,inactive: -0.01,inactive: 0.01,inactive: 0.008,inactive: 0.005,inactive: -0.06,inactive: -0.034
